Measured values: paper PMC11222155

Target: T1, GasA (yeast two-hybrid fusion) (A. flagrans)
T1 sequence: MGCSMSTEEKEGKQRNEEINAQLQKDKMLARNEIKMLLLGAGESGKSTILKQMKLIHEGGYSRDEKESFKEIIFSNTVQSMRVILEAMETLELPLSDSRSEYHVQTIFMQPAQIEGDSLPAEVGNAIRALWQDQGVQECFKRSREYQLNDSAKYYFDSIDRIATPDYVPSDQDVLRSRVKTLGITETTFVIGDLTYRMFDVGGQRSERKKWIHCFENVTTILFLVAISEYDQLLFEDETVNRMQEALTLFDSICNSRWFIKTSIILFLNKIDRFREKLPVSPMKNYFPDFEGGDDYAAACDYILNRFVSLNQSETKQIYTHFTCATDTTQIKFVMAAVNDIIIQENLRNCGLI
Test: two-hybrid; Matchmaker Gold system (Clontech); pGBKT7 and pGADT7; strains AH109 and Y187 mated; dilution series on SD-LW and SD-LWH agar plates for 3-5 days

binding: binds
Substance: C-terminal tail (111 amino acids) of GprC (yeast two-hybrid fusion) (A. flagrans) (domain or fragment)

No constants are given. Whether binding was seen depends on the method and setting. Binding calls can cover weak binding; strength is not graded here. Sequences can lack the tags named with a protein.
